Measurements as given in paper PMC12406730.
No constants are given. Whether binding was seen depends on the method and setting. Binding seen in cells or lysates may run through a third protein. Some entries that bind do so weakly or less than the wild type.

Chains of the proteins cited; added tags and fusions are not shown.
UniProt P46938: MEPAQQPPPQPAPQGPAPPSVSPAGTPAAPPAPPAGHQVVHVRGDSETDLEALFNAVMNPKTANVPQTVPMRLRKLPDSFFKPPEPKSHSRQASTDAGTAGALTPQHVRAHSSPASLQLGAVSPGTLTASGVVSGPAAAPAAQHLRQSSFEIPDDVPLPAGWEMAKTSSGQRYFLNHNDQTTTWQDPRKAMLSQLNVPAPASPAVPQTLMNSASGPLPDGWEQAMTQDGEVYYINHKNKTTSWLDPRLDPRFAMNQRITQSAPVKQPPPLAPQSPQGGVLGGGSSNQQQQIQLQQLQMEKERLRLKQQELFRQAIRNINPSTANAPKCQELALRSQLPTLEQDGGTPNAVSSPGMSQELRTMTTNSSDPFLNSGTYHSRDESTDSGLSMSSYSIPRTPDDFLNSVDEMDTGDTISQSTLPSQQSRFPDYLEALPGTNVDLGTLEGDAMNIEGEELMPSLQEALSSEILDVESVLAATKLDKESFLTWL

Target: T1, β-TrCP (in OCY454 cells) (not stated (endogenous in OCY454)) (UniProt Q3ULA2)
T1 sequence: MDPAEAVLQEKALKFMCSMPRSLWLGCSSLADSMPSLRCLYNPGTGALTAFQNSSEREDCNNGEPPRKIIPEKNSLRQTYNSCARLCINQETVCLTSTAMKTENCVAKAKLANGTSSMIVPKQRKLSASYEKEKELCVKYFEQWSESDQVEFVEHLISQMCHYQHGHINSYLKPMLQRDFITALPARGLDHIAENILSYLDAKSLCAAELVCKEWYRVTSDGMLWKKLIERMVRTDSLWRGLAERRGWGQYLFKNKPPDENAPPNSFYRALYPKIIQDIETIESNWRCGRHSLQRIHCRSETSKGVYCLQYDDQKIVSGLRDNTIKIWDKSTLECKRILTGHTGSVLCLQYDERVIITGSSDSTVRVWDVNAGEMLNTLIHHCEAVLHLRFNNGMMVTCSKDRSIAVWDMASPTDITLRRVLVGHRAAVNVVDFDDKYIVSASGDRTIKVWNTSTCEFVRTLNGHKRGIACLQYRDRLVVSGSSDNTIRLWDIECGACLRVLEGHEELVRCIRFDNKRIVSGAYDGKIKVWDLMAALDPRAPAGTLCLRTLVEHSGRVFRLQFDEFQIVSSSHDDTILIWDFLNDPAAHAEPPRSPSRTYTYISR
Test: co-IP; endogenous proteins; lysate of OCY454 osteocyte cells, with or without PTH

binding: binds
Substance: YAP (in OCY454 cells) (from UniProt P46938 1-488)
